Data as given in patent US20040086918.

Amino acid sequences for entries named in this document (tags omitted). A change or cut given only in a name is not applied to a line headed by its entry.
UniProt P05549: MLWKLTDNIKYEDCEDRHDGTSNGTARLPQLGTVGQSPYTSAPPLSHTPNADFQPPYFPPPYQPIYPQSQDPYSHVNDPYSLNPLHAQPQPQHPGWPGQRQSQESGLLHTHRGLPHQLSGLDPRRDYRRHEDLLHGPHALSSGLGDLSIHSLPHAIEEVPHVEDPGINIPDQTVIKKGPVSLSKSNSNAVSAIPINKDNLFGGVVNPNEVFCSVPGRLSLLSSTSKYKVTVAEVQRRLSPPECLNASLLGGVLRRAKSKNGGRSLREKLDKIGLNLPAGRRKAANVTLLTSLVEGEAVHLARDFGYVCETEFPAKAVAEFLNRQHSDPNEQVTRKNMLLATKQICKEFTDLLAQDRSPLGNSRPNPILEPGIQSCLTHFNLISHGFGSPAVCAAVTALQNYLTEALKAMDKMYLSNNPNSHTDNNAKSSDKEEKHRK

Key:
[1] = biological target: T1, Uracil DNA N-glycosylase (UNG) (UniProt P12295); assay: enzyme reaction in vitro; details: purified recombinant protein, protein details: Invitrogen
T1 sequence (looked up, limits assumed): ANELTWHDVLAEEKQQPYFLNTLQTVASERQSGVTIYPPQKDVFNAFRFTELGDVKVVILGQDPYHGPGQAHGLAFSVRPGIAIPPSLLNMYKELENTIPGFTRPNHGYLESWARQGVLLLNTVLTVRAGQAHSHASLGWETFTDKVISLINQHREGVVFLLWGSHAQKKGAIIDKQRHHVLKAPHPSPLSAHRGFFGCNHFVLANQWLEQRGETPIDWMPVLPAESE

[2] = biological target: AP-2 (transcription factor AP-2, 52 kDa) (Homo sapiens) (UniProt P05549); assay: footprint; details: dU in place of T on both strands (DNA; listed as RNA in the listing); UNG protection assay; 38 bp DNA stayed intact with AP-2 extract; extract binding 30 min room temperature, UNG 1 h 37 C, Tris pH 8.0, KCl, Mg; protein in an extract; protein details: cell extract containing AP-2; variant of AP2

Sequence	activity on this sequence ([1]; no uracil, not degraded with or without AP-2)	binding result [2]	activity on this sequence ([1]; dU in place of T on both strands (DNA; listed as RNA in the listing), uracil excision then NH4OH and 65 C cleavage, two fragments produced without AP-2, variant of AP2)
AAGCTTGATCGAACTGACCGCCCGCGGCCCGTGGATCC (double strand) [AP2]	not active	–	–
AAGCUUGAUCGAACUGACCGCCCGCGGCCCGUGGAUCC / GGAUCCACGGGCCGCGGGCGGUCAGUUCGAUCAAGCUU [AuPu2]	–	binds	active

For part of these data: No signal at the amounts used counts as a negative. For part of these data: Tags and fusion partners may be left off the protein sequences shown. For part of these data: At least one result comes from cells or an extract, where the contact may be indirect.
